From PubChem BioAssay AID2685 (National Center for Advancing Translational Sciences (NCATS), 2010)
The whole screen tested about 320,000 compounds, of which about 2,100 (0.66%) were called active. The call rests on the fitted dose curve; in most records, active means well fitted inhibition curve with a large enough effect in the signal ratio, with a control signal flat (not every such curve was filed as active); inconclusive means small, poorly fitted or top-dose-only effect, or effect the other way, or a change in a side signal; inactive means flat fitted curve, though single readings scatter; the % refers to the signal ratio. Inconclusive results, whose numbers are uncertain, are shown. Potencies of inconclusive entries are doubtful fits and often do not repeat.

Experiment: qHTS Assay for Lipid Storage Modulators in Drosophila S3 Cells
Conditions: BODIPY lipid droplet fluorescence, 18-24 h, cells fed with added oleic acid; lipid storage change, negative = inhibition: at 46.1 µM (top of the series) unless noted
Method in brief: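 Drosophila S3 cells got compounds at several concentrations plus oleic acid (400 uM solution). Laser-scanning cytometry with 488 nm excitation read lipid droplets at 500-530 nm and cells at 575-640 nm. Percent activity was relative to 20 uM Triacsin C.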
On the % scale 0 is the no-effect control and ±100 the full control effect; potency means the concentration at half of the fitted maximal effect.

Lipid storage change, negative = inhibition, inconclusive:
O=C(Nc1ccnn1C1CCN(Cc2ccc(OC(F)F)cc2)CC1)C1CCCC1 -30.6%
Cc1ccc(S(=O)(=O)N2CCN(C(=O)CN3C(=O)c4ccc([N+](=O)[O-])cc4C3=O)CC2)c(C)c1 -18.2%
Fc1cccc(Cl)c1CSc1nnnn1-c1ccc2c(c1)OCO2 46.2%
CC(=O)N(C1=C(Cl)C(=O)c2ccccc2C1=O)C1CCCCC1 -60.9%
CCc1cc(=O)oc2cc(C)cc(OCC(=O)NCCN3CCOCC3)c12 -17.4%
COc1cc(C(=O)NC2CCN(CC(=O)NC3CCCCC3C)CC2)cc(OC)c1OC (centres undefined) 91%
COc1ccccc1NC(=O)C(=O)N/N=C(\C)CC(=O)Nc1ccc(OCc2ccccc2)cc1 -4.46%
CCOc1ccccc1CN1CCN(Cc2csc(C(C)=O)c2)CC1CCO (centres undefined) -11.4%
COc1ccc2[nH]c(=O)cc(C(=O)O)c2c1 24.5% [at 9.22 µM]
CCS(=O)(=O)c1nc(S(=O)(=O)c2ccc(C)cc2)c(N2CC(C)CC(C)C2)s1 (centres undefined) -26.3%
COc1ccccc1-n1c(SCC(=O)O)nnc1-c1ccc(S(=O)(=O)N2CCCCC2)cc1 19.9%
Cc1ccc(S(=O)(=O)N2[C@@H](c3ccccc3F)C(C(=O)O)=CC[C@H]2c2cccs2)cc1 5.69%

2 compounds picked at random from the list so far, as already listed:
Lipid storage change, negative = inhibition, inconclusive:
COc1ccccc1NC(=O)C(=O)N/N=C(\C)CC(=O)Nc1ccc(OCc2ccccc2)cc1 -4.46%
CCc1cc(=O)oc2cc(C)cc(OCC(=O)NCCN3CCOCC3)c12 -17.4%

Following part.

Potency, inconclusive:
COCCn1cnc2c(c1=O)c1nc3ccccc3nc1n2/N=C/c1cccc(OC)c1 18.4 µM [falling, single point]
CCCn1c(N)c(C(=O)COC(=O)CNC(=O)c2ccc(C)c(C)c2)c(=O)n(C)c1=O 2.31 µM [activator, partial curve, poor fit]
CCOc1cccc(NC(=O)CSc2sc3c(O)cc(=O)[nH]c3c2C#N)c1 5.17 µM [activator, single point]
CCOC(=O)c1c(NC(=O)CSc2nnc(-c3ccco3)o2)sc(C)c1C 16.4 µM [falling, partial curve, poor fit]
COc1ccc(OC)c(NC(=O)c2cccnc2Sc2ccccc2)c1 29.1 µM [activator, single point]
O=C(CCCn1c(=O)c2ccccc2n(CC(=O)NCc2ccco2)c1=O)NCc1ccco1 5.17 µM [activator, single point]
COc1cc(C2CC(=O)N3CN(c4ccccc4C)CSC3=C2C#N)cc(OC)c1OC (centres undefined) 20.6 µM [activator, single point]
